Laboratory results: PubChem BioAssay AID504764 (Drosophila RNAi Screening Center, 2011)
Screen: 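Knock-downs that raise or lower a Notch target reporter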 (primary screen). Cells: Drosophila Kc167 cells. Reagent: long dsRNA against Drosophila genes. Duration: about 5 days (4 days dsRNA, then 24 h after transfection). Challenge: transfection of constitutively active membrane-tethered Notch lacking the extracellular domain, read 24 h later. Measurement: 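Firefly luciferase from an E(spl)m3 reporter with active Notch, plus control-promoter and uninduced reporter wells for normalisation; unnormalised counts, duplicate wells a and b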. Reading the numbers: induced reporter light, run 1, well a and induced reporter light, run 1, well b: higher = more light from the Notch target reporter with active Notch; control promoter light, run 1, well a and control promoter light, run 1, well b: higher = more light from the viral control promoter (cell number, transfection, viability); uninduced reporter light, run 1, well a: higher = more light from the Notch target reporter without active Notch. Active means: 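Wells with low control signal or poorly matching duplicates excluded; duplicates averaged; per source plate, z beyond ±2 for induced/control log2 ratio or beyond ±1.8 for induced/uninduced marks a hit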. Meaning of the calls: active = modifier hit (raised or lowered Notch signal); inactive = not a hit.
The deposit covers about 22,000 reagents; below is an unselected part of those that have a named target and a result. Over the whole deposit, 403 (1.9%) were called active. 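Unnormalised raw counts per well; ratio z-scores behind the hit calls and whether each hit raises or lowers signal are not deposited.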 A plus sign joins genes that one reagent is predicted to hit. Not stated in the record: the amount of reagent.

target	dsRNA	induced reporter light, run 1, well a	induced reporter light, run 1, well b	control promoter light, run 1, well a	control promoter light, run 1, well b	uninduced reporter light, run 1, well a	outcome
CG30109	DRSC05675	1.18e5	1.09e5	1.61e5	1.43e5	8665	inactive
beg	DRSC10923	1.24e5	1.03e5	70120	66400	7250	inactive
Orco	DRSC12358	94825	98940	62160	73770	6165	inactive
Sms	DRSC10408	65475	61465	79715	82605	3745	inactive
drpr	DRSC08143	1.43e5	2.32e5	3.64e5	3.26e5	10825	inactive
drpr	DRSC08525	1.48e5	1.29e5	2.66e5	2.45e5	8425	inactive
Osi16	DRSC12135	65315	97795	67900	68980	4055	inactive
Kua	DRSC02100	62510	47230	46000	47405	3095	inactive
CG17928	DRSC02644	1.27e5	1.28e5	1.40e5	1.79e5	11075	inactive
CG5446	DRSC02862	1.45e5	1.55e5	1.38e5	1.39e5	9915	inactive
Gapvd1	DRSC19752	1.06e5	90435	1.60e5	1.21e5	7000	inactive
CG12128 + CG1407	DRSC06446	1.06e5	93555	1.10e5	1.08e5	10260	inactive
Cp38	DRSC18453	1.71e5	1.53e5	3.13e5	2.93e5	12140	inactive
CG17754	DRSC18131	2.09e5	1.94e5	2.35e5	2.54e5	14175	inactive
Nepl10	DRSC07212	1.27e5	1.01e5	1.55e5	1.57e5	10805	inactive
CG12024	DRSC08229	93150	99370	1.63e5	1.67e5	9355	inactive
CG3708	DRSC18646	1.11e5	1.32e5	1.99e5	1.85e5	9020	inactive
CG40948 (retired record)	DRSC20944	2.42e5	2.07e5	3.24e5	3.73e5	18710	inactive
rst	DRSC17243	58585	68030	87325	96020	5465	inactive
rst	DRSC18828	1.20e5	1.11e5	1.92e5	1.82e5	8230	inactive
CG30423	DRSC04013	42950	53375	78690	64610	4545	inactive
Taf3	DRSC17170	1.57e5	1.75e5	99210	99960	12175	active
Ssu72	DRSC19572	1.06e5	90635	1.15e5	1.16e5	10305	inactive
cpx	DRSC11999	2.20e5	2.56e5	2.53e5	2.71e5	17245	inactive
tst + CG10375	DRSC14237	1.67e5	2.02e5	2.15e5	2.53e5	14750	inactive
Gr57a	DRSC06401	1.31e5	1.51e5	1.73e5	1.41e5	5255	inactive
CG1941	DRSC06802	2.23e5	1.77e5	2.41e5	2.27e5	15942	inactive
aux	DRSC12161	1.10e5	1.14e5	72465	59625	7955	inactive
CG15764	DRSC18070	1.13e5	1.49e5	2.82e5	2.33e5	10750	inactive
Acp32CD	DRSC01858	1.47e5	1.54e5	62100	1.03e5	20592	inactive
CG8568	DRSC20113	1.14e5	1.20e5	1.04e5	61315	9390	inactive
ctp	DRSC18758	2.88e5	2.44e5	3.43e5	3.29e5	20650	inactive
CG33489	DRSC10588	91810	1.29e5	1.42e5	1.40e5	7845	inactive
CG7309	DRSC03045	1.18e5	1.48e5	68060	1.12e5	16690	inactive
ine	DRSC00822	1.49e5	1.78e5	1.76e5	1.73e5	14725	inactive
CG5180	DRSC15731	1.97e5	1.94e5	1.99e5	2.12e5	15160	inactive
Mlp60A	DRSC04623	1.35e5	1.08e5	1.61e5	1.39e5	9265	inactive
CG11583	DRSC08202	1.20e5	1.20e5	86685	32905	11260	inactive
Ccz1	DRSC08439	1.26e5	1.21e5	2.00e5	1.84e5	6545	inactive
twin	DRSC15259	1.86e5	2.13e5	2.22e5	2.56e5	15232	inactive
twin	DRSC15831	1.40e5	1.57e5	2.22e5	1.77e5	12715	inactive
Met75Ca + Met75Cb	DRSC09549	1.82e5	1.39e5	1.85e5	2.14e5	14965	inactive
Met75Ca + Met75Cb	DRSC11221	2.05e5	2.70e5	2.59e5	2.06e5	7940	inactive
ver	DRSC10125	1.63e5	1.71e5	2.79e5	2.20e5	7565	inactive
CG13073	DRSC09956	1.67e5	1.80e5	1.29e5	1.19e5	9195	active
CG32726	DRSC17521	88625	72900	83115	84435	5845	inactive
CG14443	DRSC17936	1.67e5	1.61e5	2.60e5	3.07e5	12435	inactive
Tsp39D	DRSC03099	52605	35210	42695	56440	2115	inactive
CG7695	DRSC16289	2.01e5	2.18e5	1.94e5	2.16e5	13910	inactive
CG34331	DRSC20679	75660	91955	90795	1.47e5	10875	inactive
Idh	DRSC10779	1.12e5	1.29e5	94160	54535	11010	inactive
CheA46a	DRSC05184	62605	63575	69420	1.05e5	3555	inactive
ninaC	DRSC03579	1.80e5	1.84e5	2.02e5	1.82e5	13410	inactive
CCT7	DRSC16410	30550	27845	23730	23280	5038	inactive
CG11601	DRSC00318	1.02e5	1.08e5	86100	57130	8978	inactive
Stim	DRSC20158	1.84e5	2.07e5	2.22e5	2.05e5	14270	inactive
SCaMC	DRSC10293	89120	99655	47055	30600	8020	inactive
SCaMC	DRSC10415	2.45e5	1.91e5	2.53e5	2.77e5	15710	inactive
CG7246	DRSC18422	1.84e5	1.68e5	2.11e5	1.97e5	9605	inactive
ssp7	DRSC18878	1.19e5	88070	1.31e5	1.22e5	6965	inactive
CG31974	DRSC00522	1.60e5	1.39e5	1.13e5	57165	12245	inactive
CG15247	DRSC17976	1.04e5	1.07e5	2.08e5	1.97e5	8300	inactive
fal	DRSC11087	1.31e5	1.29e5	1.03e5	1.35e5	10470	inactive
CG4465	DRSC15584	2.24e5	2.17e5	2.04e5	2.18e5	15490	inactive

3 entries from above, reformatted:
target,dsRNA,"induced reporter light, run 1, well a","induced reporter light, run 1, well b","control promoter light, run 1, well a","control promoter light, run 1, well b","uninduced reporter light, run 1, well a",outcome
Osi16,DRSC12135,65315,97795,67900,68980,4055,inactive
Kua,DRSC02100,62510,47230,46000,47405,3095,inactive
CG17928,DRSC02644,1.27e5,1.28e5,1.40e5,1.79e5,11075,inactive
